# Results from article PMC3143129.
# The exact form of at least one protein or probe is not confirmed. Results from cells or extracts need not show a direct contact.
# Tested on: SATB1 + JUNB
# Assay: EMSA + LC-MS/MS of band
# Details: NFAT1-deficient Th2 nuclear extract, anti-CD3 6 h, signal much stronger than with WT Th2 extract; 10 mM Tris pH 7.5, 0.5 mM MgCl2, 80 mM NaCl, 2.5 mM DTT, 4% glycerol, 1 mM beta-mercaptoethanol, 10 ug nuclear extract, 1 h on ice; 5% PAGE in 0.25x TBE at 4 C; protein in an extract; label: 32P 5' end
sequence,measurement,value
CTGGTGTAATAAAATTTTCCAATGTAAACTCATTT (double strand) [IL-4 promoter P2 (-196 to -163)],binding result,binds
